Binding data for 4 substances are collected here from patent US7211402.

The chains behind the UniProt entries cited, without tags or fusion partners. Where a name states a change or a piece, a line headed by the entry shows the natural chain unless it says otherwise. Residues count along the entry.
UniProt P03372, residues 251-595: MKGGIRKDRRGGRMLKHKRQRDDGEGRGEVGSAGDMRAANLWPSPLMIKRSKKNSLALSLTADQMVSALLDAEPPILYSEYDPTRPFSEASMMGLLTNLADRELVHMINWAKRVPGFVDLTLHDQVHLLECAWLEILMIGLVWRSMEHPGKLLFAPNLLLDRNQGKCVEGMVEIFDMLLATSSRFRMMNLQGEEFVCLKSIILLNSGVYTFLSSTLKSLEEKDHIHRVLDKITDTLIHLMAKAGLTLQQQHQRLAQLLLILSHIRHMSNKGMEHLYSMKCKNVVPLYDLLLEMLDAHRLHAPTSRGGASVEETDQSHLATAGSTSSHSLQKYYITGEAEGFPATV
UniProt P45481, residues 2058-2170: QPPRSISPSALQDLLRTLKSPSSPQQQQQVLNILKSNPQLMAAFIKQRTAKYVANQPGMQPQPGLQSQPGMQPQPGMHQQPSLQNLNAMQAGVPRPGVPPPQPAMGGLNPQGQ
NCoA-1 nuclear receptor interaction domains (aa 635-760), yeast two-hybrid prey, wild type (P70365, residues 635-760): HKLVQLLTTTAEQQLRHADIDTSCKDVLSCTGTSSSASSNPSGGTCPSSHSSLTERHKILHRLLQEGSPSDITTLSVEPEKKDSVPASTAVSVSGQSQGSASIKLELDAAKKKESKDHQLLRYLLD
NCoA-1 smaller region lacking helical domain 3 (yeast two-hybrid prey) (P70365, residues 635-735): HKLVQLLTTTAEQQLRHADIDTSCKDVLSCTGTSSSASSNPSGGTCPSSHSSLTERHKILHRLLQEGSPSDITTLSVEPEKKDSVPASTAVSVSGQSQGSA
UniProt Q61026: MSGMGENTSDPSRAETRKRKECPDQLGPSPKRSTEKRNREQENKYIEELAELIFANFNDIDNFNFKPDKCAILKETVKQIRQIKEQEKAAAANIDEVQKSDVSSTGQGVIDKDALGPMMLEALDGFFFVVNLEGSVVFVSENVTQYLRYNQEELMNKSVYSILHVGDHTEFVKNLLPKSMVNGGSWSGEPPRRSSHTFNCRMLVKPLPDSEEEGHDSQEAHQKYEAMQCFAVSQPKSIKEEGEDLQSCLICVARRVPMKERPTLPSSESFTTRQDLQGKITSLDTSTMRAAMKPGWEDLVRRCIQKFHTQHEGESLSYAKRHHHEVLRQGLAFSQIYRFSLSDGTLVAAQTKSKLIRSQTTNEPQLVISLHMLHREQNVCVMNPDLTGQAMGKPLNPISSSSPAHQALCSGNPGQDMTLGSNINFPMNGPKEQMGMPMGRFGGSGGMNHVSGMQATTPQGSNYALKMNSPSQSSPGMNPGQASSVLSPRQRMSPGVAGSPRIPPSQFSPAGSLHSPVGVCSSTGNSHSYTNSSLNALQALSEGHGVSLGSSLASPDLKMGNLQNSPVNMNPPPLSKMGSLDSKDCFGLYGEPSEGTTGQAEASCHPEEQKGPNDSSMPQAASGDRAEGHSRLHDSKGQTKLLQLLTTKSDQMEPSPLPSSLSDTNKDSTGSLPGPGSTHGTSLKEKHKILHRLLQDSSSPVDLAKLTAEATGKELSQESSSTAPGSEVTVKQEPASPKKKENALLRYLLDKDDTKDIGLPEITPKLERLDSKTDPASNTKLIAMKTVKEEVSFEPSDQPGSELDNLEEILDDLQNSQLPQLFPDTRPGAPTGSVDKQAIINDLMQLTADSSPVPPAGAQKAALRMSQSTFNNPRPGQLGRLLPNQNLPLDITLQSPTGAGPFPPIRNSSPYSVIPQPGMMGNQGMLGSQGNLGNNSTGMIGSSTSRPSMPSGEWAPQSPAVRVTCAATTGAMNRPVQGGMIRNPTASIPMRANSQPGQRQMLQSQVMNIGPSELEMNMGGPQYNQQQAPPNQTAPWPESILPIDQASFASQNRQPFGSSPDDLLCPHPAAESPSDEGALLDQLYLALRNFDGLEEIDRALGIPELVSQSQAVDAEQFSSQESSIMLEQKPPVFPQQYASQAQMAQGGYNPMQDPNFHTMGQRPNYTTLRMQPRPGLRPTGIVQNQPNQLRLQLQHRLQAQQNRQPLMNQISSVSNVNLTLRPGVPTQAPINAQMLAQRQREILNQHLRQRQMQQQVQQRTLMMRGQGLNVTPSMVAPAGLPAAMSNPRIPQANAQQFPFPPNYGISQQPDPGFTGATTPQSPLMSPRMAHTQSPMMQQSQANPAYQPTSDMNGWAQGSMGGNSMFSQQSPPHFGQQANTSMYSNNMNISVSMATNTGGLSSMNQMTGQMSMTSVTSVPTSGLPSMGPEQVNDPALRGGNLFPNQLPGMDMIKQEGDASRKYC
UniProt O09000: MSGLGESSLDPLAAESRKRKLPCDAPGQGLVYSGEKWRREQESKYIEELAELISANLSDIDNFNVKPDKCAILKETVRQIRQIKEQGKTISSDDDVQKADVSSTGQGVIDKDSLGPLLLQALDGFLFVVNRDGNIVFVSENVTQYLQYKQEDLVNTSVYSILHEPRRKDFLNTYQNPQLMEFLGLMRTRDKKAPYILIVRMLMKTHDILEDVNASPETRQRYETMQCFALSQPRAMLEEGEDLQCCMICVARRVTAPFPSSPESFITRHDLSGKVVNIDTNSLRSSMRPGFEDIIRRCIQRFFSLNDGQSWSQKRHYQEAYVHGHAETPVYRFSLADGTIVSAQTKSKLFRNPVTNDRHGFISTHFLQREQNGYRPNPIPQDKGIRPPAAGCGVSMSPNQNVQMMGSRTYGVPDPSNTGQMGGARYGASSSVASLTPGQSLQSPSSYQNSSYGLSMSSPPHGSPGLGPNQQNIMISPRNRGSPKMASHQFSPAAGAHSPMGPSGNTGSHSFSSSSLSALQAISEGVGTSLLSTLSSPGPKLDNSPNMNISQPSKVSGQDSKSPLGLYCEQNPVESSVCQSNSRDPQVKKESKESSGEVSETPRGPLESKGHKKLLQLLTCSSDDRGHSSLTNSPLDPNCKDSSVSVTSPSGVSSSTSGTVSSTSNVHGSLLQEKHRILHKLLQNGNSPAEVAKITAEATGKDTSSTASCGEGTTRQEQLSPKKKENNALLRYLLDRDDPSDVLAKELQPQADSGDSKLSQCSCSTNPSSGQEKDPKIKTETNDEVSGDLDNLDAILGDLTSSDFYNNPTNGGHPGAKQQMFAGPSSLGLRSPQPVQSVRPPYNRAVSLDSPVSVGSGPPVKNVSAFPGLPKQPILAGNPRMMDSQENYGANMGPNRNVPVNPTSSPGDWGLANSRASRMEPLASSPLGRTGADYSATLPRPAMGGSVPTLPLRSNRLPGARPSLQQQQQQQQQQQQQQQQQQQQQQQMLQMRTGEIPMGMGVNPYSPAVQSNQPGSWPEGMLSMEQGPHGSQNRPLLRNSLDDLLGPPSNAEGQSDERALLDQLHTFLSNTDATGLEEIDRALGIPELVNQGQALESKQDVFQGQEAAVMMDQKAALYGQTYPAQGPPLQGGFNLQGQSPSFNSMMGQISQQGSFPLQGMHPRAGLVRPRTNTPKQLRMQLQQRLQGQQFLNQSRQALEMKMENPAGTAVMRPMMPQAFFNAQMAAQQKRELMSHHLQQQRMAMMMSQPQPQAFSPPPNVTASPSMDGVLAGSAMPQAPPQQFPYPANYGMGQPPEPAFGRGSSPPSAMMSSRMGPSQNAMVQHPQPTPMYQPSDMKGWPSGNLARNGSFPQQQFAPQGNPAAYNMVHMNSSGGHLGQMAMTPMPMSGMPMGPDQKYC

The target in assay [1] is estrogen receptor ligand binding domain (yeast two-hybrid bait, liganded) (UniProt P03372). Put plainly: yeast two-hybrid; wild type, against which the LCD2 mutant lost the interaction.
Assay [2] has the same target. Put plainly: yeast two-hybrid.
The target of assay [3] is CBP(2058-2170) yeast two-hybrid bait (UniProt P45481). Nature of the assay: yeast two-hybrid.
Assay [4] addresses estrogen receptor ligand binding domain (yeast two-hybrid bait, liganded) (UniProt P03372). Put plainly: yeast two-hybrid with the liganded estrogen receptor LBD (FIG. 3c).

Results are given in words; binding and its absence hold for the method and conditions named. Some results given as binding are weak or reduced against the parent protein; the word gives no strength.

For the substance “NCoA-1 nuclear receptor interaction domains (aa 635-760), yeast two-hybrid prey, wild type (from UniProt P70365 635-760)”, the binding entry in assay [1] was “binds”.

Turning to “NCoA-1 smaller region lacking helical domain 3 (yeast two-hybrid prey) (from UniProt P70365 635-735)”, the binding entry in assay [2] is “binds”.

For the substance “NCoA-2 regions comparable to the p/CIP interaction regions (yeast two-hybrid prey) (from UniProt Q61026 2-1462)”, the binding entry in assay [3] is “binds”.

In the case of “p/CIP aa 591-803 (yeast two-hybrid prey) (from UniProt O09000 591-803)”, the binding entry in assay [4] is listed as “binds”.
